Test system: E. coli O157:H7 BEI: BAA-1883
Test: MIC against a panel of Gram-positive and Gram-negative bacteria
Assay type: cell-based
Conditions: Escherichia coli, BAA1883

O=C(O)c1cn(C2CC2)c2cc(N3CCNCC3)c(F)cc2c1=O [Cipro, Ciprofloxacin] was tested, and the MIC was under 1 µg/mL.

Source: patent US10125167B2, “Compositions and methods for treating MRSA infections and for sensitizing MRSA to beta-lactam antibiotics” (Arizona Board of Regents on behalf of Arizona State …, priority 2015, dated 2018)
